# Results: the supplement of paper PMC10338343
# ± gives the standard deviation. The entries are a selection whose mix differs from that of the whole data set. Many entries were measured with a wide error.
# Test system: MIWI (PIWIL1) piRISC loaded with L1MC piRNA (30 nt)
# Test: pre-steady-state target cleavage rate (min^-1); MIWI and MILI are mouse PIWI proteins and EfPiwi is from a freshwater sponge; tags in brackets are library labels; higher = faster piRNA-guided slicing of the target
# Conditions: guide: L1MC piRNA 5'p-UAACUAAAUACUAUGCAAGCUGUAGGUCCU; auxiliary factor: 500 nM mouse GTSF1
# How it was run: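 In this Cleave-'n-Seq assay, uncleaved targets were sequenced and normalised to depth and to weakly complementary targets. They came from a transcribed, DNA-blocked target RNA library […] mixed with 1 nM active affinity-purified piRISC carrying one synthetic guide, with or without 500 nM GTSF1 partner protein, in HEPES–potassium acetate buffer at 33 °C for 0–8 or 0–960 min. After three trials were pooled and k3 was capped at 0.0001 min^-1, the pre-steady-state cleavage rate was obtained from a burst-and-steady-state fit.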
# 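Note: 1 nM active piRISC with 0.1 nM target library at 33 °C single turnover.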
row,Sequence,pre-steady-state target cleavage rate
1,UGGACCUACAGCGUGCAUAGUAUUUAGUUA,1.43 ± 0.065
2,UCCUGGAUGUCGAACGUAUCUAUUUUAGUUA,0.000127 ± 0.028
3,AGGACCAACAGCUUGGAUAGUAUUUAGUUA,1.41 ± 0.059
4,AGGAGGUACAGCUUGCAUAGUAUUUAGUUA,1.5 ± 0.072
5,UGUACCUACAGCUUGCAUAGUAUUUAGUUA,1.34 ± 0.049
6,UCCUGGAUGUCGAACCAUAGUAUCUUAGUUA,0.000275 ± 0.017

# Same assay, conditions: guide: L1MC piRNA 5'p-UAACUAAAUACUAUGCAAGCUGUAGGUCCU; auxiliary factor: none (no GTSF1)
row,Sequence,pre-steady-state target cleavage rate
1,AGCUGCUACAGCUUGCAUAGUAUUUUCAAA,0.00144 ± 0.0043
2,AGGACCUACAGCUUGCUAAGUAUUUAGUAA,0.00204 ± 0.0038
3,UGGACCUACAGCUUCGAUAGUAUUUAGAAA,0.00112 ± 0.0039
4,UCCUGGAUGUCGAAGCAUAGUAUUAUCUUA,0.000121 ± 0.019
5,UCGACCUACACGUUGCAUAGUAUUUUCAAA,0.000832 ± 0.0083
6,AGCUGCUACAGCUUGCAUAGUAUUUACAAA,0.00178 ± 0.0034
7,UCGACCUACAGCUUGCAAUGUAUUUACAAA,0.000977 ± 0.0071
8,UCCACCUACAGCUUCCAUAGUAUUUACUUA,0.000798 ± 0.0089
9,AGGACCUACAGCUUCGUUAGUAUUUAGUUA,0.00188 ± 0.0032
10,UGCUGCUACAGCUUGCAUAGUAUUUACAAA,0.00236 ± 0.0024
11,UCCUGGAUGUCGAAGCAUAGAUAUUAGUUA,0.000617 ± 0.011
12,UCGACCUACAGCUUCCAUACUAUUUAGUUA,0.00084 ± 0.0055
13,UCCUGGAUCAGCUUGGUAAGUAUUUACAAA,0.000777 ± 0.0086
14,UCCUGGAUGUCGAACGAUUGUUUUUAGUUA,0.000203 ± 0.026
15,UCCACCUACAGCUUGGUAAGUAUUUAGAAA,0.000282 ± 0.011
16,UGGACCUACAGCUUGCAUAGAUUUUAGAAA,0.000394 ± 0.0069
17,AGGACCUACAGCAUGCAUAGUAUUUUCAAA,0.00245 ± 0.0041
18,UCCUCCUACAGCUUGCUAGUAUUUAGUUA,0.00227 ± 0.0029

# A section from the list above, as a working copy:
row,Sequence,pre-steady-state target cleavage rate
7,UCGACCUACAGCUUGCAAUGUAUUUACAAA,0.000977 ± 0.0071
8,UCCACCUACAGCUUCCAUAGUAUUUACUUA,0.000798 ± 0.0089
